From article PMC10870365, “Dissection of protein and RNA regions required for SPEN binding to XIST A-repeat RNA” come the findings set out here.

For at least one entry, the source does not settle the construct or the ends of the probe. Protein sequences can lack the tags named with them.

In this data set the target is T1, SPEN RRM 1-4 (Homo sapiens) (UniProt Q96T58).
T1 sequence (limits assumed): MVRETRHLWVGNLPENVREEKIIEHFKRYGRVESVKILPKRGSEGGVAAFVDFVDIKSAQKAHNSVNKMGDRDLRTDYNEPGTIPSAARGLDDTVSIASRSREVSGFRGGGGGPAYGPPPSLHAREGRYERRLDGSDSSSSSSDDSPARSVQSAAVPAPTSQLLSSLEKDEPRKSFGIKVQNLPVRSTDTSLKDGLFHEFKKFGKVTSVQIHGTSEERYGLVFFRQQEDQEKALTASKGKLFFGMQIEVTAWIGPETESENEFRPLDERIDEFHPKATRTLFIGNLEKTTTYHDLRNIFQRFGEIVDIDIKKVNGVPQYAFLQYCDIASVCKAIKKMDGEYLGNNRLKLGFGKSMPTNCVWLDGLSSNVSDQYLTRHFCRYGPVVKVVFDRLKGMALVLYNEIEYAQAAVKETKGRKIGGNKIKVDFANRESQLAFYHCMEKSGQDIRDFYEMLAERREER
Kind of data set: competition with a labelled probe. The conditions noted are these: unlabeled SRA displaces 1 µM Cy3-XIST A-full at 10 µM protein; EMSA: 20 mM Tris-HCl pH 7.5, 150 mM KCl, 5 mM MgCl2, 10% glycerol, room temperature 30 min, 2 nM each labeled RNA (multiplexed), 4.5% TBE native gel; recombinant protein.

With “GUACCAGGUAUGUGAUGACAUCAGCCGACGCCUGGCACUGCUGCAGGAACAGUGGGCUGGAGGAAAGUUGUCAAUACCUGUAAAGAAGAGAAUGGCUCUACUGGUGCAAGAGCUUUCAAGCCACCGGUGGGACGCAGCAGAUGACAUCCACCGCUCCCUCAUGGUUGACCAUGUGACUGAGGUCAGUCAGUGGAUGGUAGGAGUUAAAAGAUUAAUUGCAGAAAAGAGGAGUCUGUUUUCAGAGGAGGCAGCCAAUGAAGAGAAAUCUGCAGCCACAGCUGAGAAGAACCAUACCAUACCAGGCUUCCAGCAGGCUUCAUAAUCCUCGGUUCCCCAGACUCACCGGACACCAUCUCCU [SRA]”, the binding result was “binds”.
